Measurements from the supplement of paper PMC12819154, “High-throughput peptide-centric local stability assay extends protein–ligand identification to membrane proteins, tissues and bacteria” (Nature Structural & Molecular Biology, 2025).
This is one part of the list. Small differences around the control level are noise.

By UniProt entry, the sequences of proteins in these tests, tags left out. Where a name states a change or a piece, a line headed by the entry shows the natural chain unless it says otherwise.
UniProt Q9R0P6: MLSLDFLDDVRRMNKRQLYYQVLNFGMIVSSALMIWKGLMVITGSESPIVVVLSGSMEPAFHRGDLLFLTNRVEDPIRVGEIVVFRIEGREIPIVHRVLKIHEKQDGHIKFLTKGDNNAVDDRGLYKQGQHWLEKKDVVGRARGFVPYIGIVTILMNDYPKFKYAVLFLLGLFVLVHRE
UniProt Q9WV54: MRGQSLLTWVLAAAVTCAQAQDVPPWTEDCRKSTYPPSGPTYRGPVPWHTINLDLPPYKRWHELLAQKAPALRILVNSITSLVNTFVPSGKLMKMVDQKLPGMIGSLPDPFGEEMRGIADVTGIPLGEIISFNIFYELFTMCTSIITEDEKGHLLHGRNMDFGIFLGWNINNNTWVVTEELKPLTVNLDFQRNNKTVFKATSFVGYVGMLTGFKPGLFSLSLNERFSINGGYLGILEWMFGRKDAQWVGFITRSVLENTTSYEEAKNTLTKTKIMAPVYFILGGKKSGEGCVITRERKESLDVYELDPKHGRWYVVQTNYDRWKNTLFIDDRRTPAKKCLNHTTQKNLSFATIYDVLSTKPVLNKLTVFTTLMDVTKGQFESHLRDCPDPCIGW
UniProt Q9Z0H8: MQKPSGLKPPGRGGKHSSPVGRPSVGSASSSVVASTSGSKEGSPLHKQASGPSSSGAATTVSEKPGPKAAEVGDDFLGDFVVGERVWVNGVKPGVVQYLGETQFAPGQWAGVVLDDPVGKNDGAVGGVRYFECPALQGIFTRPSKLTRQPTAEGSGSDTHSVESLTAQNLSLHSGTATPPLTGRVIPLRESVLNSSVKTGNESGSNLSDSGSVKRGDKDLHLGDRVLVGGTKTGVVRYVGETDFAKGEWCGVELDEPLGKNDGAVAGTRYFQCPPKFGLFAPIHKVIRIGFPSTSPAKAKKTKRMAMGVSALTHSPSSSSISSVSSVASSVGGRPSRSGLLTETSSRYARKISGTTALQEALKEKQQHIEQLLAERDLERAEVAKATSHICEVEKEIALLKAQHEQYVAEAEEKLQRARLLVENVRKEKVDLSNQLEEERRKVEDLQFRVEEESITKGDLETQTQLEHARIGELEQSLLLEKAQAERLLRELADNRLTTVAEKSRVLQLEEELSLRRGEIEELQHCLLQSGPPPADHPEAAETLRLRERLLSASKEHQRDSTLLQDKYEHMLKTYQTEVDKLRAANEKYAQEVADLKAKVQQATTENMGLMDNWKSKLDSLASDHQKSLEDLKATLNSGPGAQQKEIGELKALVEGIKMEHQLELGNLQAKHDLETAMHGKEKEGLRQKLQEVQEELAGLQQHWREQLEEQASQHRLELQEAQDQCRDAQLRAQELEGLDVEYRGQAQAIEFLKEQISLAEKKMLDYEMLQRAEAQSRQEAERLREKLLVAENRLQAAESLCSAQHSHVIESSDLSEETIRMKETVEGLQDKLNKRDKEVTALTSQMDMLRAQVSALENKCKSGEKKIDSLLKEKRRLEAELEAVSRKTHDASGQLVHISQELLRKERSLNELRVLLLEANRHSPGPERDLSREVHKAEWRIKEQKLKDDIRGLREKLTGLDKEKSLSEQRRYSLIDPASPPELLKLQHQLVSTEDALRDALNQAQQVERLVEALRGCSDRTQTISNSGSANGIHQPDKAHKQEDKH
UniProt Q9QZQ8, whole entry: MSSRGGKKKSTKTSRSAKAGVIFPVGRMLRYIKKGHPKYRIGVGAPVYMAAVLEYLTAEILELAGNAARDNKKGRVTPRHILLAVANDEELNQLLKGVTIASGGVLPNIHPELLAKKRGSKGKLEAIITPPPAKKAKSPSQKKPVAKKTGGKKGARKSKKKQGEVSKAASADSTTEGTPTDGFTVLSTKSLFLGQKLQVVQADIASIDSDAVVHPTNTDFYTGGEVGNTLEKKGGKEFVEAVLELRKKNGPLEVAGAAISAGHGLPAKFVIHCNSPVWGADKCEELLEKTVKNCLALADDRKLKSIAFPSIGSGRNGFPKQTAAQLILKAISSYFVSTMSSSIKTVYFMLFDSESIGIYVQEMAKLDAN
UniProt Q9R0Y5: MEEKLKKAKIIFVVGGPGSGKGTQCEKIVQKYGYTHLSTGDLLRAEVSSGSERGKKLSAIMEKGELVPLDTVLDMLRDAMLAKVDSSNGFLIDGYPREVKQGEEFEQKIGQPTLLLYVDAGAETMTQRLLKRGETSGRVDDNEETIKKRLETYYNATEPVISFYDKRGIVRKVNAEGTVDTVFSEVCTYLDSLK
UniProt Q9WVT6: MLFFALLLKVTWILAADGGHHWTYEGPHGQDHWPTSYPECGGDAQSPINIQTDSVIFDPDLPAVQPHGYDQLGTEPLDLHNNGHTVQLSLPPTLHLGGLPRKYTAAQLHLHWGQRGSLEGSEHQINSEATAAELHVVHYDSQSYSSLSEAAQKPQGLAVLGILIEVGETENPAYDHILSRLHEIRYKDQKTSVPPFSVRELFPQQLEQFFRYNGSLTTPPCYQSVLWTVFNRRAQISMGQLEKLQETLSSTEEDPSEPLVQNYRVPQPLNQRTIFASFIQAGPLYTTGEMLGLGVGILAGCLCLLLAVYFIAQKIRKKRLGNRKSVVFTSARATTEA
UniProt Q9WUL7: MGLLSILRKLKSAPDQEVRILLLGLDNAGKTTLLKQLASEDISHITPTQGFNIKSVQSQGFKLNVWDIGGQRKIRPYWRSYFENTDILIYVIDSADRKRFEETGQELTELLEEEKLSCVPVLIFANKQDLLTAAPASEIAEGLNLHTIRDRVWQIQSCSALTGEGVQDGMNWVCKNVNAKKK
UniProt Q9Z2A7: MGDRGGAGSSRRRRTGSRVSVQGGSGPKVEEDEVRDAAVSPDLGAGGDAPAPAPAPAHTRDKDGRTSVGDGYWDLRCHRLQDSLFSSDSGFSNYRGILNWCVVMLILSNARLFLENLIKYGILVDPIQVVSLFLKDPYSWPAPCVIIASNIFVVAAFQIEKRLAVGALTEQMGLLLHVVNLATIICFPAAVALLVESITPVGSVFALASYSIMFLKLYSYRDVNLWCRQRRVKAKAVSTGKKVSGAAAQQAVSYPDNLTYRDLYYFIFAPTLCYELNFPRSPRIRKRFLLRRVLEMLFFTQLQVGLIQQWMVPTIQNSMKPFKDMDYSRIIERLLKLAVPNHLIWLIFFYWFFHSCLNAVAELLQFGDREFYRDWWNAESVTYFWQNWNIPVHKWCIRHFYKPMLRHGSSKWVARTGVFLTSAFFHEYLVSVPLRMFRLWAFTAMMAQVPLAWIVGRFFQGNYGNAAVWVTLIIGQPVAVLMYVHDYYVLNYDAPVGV
UniProt Q9WVE8: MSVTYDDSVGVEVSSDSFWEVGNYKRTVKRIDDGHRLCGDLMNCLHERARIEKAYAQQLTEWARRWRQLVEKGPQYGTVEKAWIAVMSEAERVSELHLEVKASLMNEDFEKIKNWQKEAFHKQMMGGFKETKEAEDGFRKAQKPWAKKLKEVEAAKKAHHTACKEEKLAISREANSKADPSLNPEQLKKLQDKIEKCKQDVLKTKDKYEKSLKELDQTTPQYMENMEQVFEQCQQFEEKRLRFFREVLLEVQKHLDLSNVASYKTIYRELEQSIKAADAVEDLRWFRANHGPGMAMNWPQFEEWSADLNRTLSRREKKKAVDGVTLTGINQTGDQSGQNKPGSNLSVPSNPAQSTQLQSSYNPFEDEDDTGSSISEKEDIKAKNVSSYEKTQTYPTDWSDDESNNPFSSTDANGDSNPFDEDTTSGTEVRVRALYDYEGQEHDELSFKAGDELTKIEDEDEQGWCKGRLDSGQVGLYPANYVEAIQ
UniProt Q9QZC2: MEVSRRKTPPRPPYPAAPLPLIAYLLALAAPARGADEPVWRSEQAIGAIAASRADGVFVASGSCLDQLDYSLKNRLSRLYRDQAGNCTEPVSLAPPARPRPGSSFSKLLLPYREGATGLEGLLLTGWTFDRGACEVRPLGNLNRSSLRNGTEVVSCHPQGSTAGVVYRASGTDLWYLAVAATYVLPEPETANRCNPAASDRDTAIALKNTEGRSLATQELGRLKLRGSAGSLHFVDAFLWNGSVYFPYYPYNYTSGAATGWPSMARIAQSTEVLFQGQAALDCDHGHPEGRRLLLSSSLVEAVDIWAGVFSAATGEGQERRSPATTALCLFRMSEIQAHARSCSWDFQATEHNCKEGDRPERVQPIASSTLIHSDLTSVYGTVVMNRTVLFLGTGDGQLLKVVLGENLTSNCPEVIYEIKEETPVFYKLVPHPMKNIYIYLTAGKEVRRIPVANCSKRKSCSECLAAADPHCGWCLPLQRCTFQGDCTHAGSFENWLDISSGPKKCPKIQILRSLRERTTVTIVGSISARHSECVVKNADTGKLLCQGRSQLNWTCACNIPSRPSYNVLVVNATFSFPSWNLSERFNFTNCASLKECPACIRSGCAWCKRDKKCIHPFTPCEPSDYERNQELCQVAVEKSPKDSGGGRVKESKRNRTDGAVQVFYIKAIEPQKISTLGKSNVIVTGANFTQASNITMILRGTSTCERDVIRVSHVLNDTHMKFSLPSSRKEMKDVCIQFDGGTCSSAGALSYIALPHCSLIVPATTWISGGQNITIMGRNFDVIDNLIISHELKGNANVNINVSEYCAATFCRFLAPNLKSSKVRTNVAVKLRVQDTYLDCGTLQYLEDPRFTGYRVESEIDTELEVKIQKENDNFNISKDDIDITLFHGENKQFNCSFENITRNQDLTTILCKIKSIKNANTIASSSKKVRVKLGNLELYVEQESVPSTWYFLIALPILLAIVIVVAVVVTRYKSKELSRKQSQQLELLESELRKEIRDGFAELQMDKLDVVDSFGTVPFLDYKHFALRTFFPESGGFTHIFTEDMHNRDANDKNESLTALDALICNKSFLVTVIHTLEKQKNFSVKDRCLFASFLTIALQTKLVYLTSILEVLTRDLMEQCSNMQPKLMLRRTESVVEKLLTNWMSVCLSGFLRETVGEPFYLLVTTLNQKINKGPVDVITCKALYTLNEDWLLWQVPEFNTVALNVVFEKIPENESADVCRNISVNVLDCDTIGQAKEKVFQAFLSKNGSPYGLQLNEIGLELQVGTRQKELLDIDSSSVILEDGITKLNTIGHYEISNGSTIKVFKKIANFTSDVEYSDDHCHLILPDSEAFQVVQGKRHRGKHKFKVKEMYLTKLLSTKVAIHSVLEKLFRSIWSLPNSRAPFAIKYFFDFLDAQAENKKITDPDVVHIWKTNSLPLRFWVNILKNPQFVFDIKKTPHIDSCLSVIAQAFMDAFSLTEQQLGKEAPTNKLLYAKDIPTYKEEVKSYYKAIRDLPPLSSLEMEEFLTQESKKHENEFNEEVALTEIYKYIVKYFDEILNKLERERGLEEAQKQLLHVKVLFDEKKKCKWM
UniProt Q9WVQ5: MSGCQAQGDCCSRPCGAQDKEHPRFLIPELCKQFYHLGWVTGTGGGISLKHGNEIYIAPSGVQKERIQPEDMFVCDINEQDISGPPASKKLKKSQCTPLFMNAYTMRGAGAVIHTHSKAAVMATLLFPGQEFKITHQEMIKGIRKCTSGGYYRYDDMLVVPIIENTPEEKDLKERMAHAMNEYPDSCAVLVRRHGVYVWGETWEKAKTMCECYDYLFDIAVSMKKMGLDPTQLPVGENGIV
UniProt Q9R008, whole entry: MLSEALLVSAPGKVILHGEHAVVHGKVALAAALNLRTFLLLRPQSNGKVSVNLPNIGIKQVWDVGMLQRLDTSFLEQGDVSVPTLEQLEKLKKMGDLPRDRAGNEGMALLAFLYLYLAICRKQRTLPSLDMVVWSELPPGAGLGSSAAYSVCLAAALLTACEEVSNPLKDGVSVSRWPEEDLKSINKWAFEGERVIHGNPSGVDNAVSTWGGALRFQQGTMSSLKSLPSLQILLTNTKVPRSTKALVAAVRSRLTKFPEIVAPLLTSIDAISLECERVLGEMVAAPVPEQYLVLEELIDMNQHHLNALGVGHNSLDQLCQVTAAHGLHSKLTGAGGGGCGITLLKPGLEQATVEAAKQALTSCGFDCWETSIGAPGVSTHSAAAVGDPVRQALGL
UniProt Q9QZS3: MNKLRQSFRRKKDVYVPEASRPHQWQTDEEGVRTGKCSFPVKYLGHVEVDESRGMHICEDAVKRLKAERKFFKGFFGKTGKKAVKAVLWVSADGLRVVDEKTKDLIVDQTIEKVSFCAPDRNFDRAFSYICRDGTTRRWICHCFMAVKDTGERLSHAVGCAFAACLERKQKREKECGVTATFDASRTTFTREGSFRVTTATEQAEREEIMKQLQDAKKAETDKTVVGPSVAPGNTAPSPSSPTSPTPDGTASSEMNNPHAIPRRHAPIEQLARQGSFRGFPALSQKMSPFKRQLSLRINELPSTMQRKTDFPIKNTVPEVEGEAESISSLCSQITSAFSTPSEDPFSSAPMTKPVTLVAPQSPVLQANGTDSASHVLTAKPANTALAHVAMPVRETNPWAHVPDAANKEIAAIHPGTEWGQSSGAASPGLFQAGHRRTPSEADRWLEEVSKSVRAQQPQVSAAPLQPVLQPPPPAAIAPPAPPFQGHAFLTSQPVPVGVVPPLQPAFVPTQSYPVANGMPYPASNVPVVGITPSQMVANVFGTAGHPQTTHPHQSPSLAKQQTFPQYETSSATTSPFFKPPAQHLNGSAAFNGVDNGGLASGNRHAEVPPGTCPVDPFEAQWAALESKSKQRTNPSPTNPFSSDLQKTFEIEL

Compound: CN[C@@H]1C[C@H]2O[C@@](C)([C@@H]1OC)n1c3ccccc3c3c4c(c5c6ccccc6n2c5c31)C(=O)NC4 [staurosporine]
Assay: log2 fold change of pooled soluble protein (PISA), ligand vs vehicle (log2 ratio); higher = more thermally stabilized
Details: ligand concentration: 20 uM; assay format: PISA pool 52.9/55.5/58.6 C

Target | log2 fold change of pooled soluble protein
UniProt Q9Z2W0 | -0.0471
UniProt Q9WV03 | 0.0887
UniProt Q9WTU0 | -0.00417
UniProt Q9Z1K5 | -0.0752
UniProt Q9R0P6 | -0.0473
UniProt Q9Z0U1 | -0.013
UniProt Q9R0Q6 | -0.0558
UniProt Q9WV54 | -0.0441
UniProt Q9R1T2 | -0.00689
UniProt Q9Z2X8 | 0.0916
UniProt Q9Z0H8 | -0.0151
UniProt Q9R1J0 | 0.117
UniProt Q9R233 | 0.0188
UniProt Q9Z204 | 0.0102
UniProt Q9R0Q3 | -0.0568
UniProt Q9R0Q9 | 0.242
UniProt Q9R1T4 | 0.0981
UniProt Q9QZQ8 | 0.0167
UniProt Q9R0Y5 | -0.0452

10 entries from above, reformatted.
Target	log2 fold change of pooled soluble protein
UniProt Q9Z1K5	-0.0752
UniProt Q9R0P6	-0.0473
UniProt Q9Z0U1	-0.013
UniProt Q9R0Q6	-0.0558
UniProt Q9WV54	-0.0441
UniProt Q9R1T2	-0.00689
UniProt Q9Z2X8	0.0916
UniProt Q9Z0H8	-0.0151
UniProt Q9R1J0	0.117
UniProt Q9R233	0.0188

Following part

Target | log2 fold change of pooled soluble protein
UniProt Q9Z2A9 | 0.0629
UniProt Q9WVT6 | 0.0242
UniProt Q9WUL7 | -0.0832
UniProt Q9Z2A7 | 0.0503
UniProt Q9WVE8 | -0.0804
UniProt Q9WUM3 | 0.191
UniProt Q9QZC2 | -0.208
UniProt Q9QZB7 | 0.0539
UniProt Q9QYR9 | -0.00137
UniProt Q9R098 | 0.0814
UniProt Q9WVQ5 | -0.0159
UniProt Q9WU78 | -0.0377
UniProt Q9R008 | -0.0757
UniProt Q9QYJ0 | 0.0568
UniProt Q9Z127 | -0.0822
UniProt Q9QZS3 | 0.0913
UniProt Q9WUU7 | -0.0361
UniProt Q9R190 | -0.573
UniProt Q9Z108 | -0.0457
